Reference: US20230107128A1, “SCREENING SYSTEM FOR HUMAN-TRANSFORMED CARTILAGE CELL LINE-BASED CARTILAGE DISEASE TREATMENT AGENTS” (LUGEN SCI CO., LTD., priority 2018, published 2023)
Some entries share one result that the patent states for a list of compounds.

Tested on: C28/I2 cell line
Format: cell-based, human
Details: C28/I2, 0-25 μM, 48 hours, maximum increase
Experimental: To confirm the effect of 2-AQCA on inhibiting a cell growth rate and the presence of toxicity, the cells to be analyzed (C28/I2 cell line and chondrocytes isolated from osteoarthritis patients) were seeded and fixed at an initial concentration of 10,000 cells per well in a 96-well plate 24 hours before the experiment, and the cells were subjected to starvation in serum-free culture fluid for seven hours on the following next day. After that, while the culture fluid was replaced with a serum culture fluid containing 10% FBS, the experimental groups were treated repeatedly three times with Kartogenin and 2-AQCA at each concentration and further cultured for 48 hours. The cells were treated with the test materials at each concentration of 0, 3.125, 6.25, 12.5, and 25 μM, which had been used to verify the effect of treatment at each of the concentrations. Similarly, in order to equalize the experimental conditions, the treatment was performed so that the final concentration of DMSO was 0.25% in all the experimental groups. […] Then, the absorbance of each cell was measured at 450 nm by using a TECAN SPARK multi-reader.

## O=C(O)c1ccc2c(c1)C(=O)c1ccccc1C2=O [2-AQCA, 2-anthraquinonecarboxylic acid]
  increase of cell growth rate compared to negative control group (DMSO): ≥ 47%
